The text below walks through data of patent publication US20240352060 (published 2024).

Several values for one entry are separate records, joined by “and”; a condition that tells them apart may be missing. Identical values can stand only once.

The data set is described as follows: general procedure: Fmoc solid-phase peptide synthesis; Rink Amide MBHA resin (0.62 mmol/g loading); bromoacetic acid / DIC (submonomer method). As to conditions: whole synthesis, 214 nm; run 1.

Consider (Npe-Nme)9, for which the “crude HPLC purity” value was 75% and 76%.
